# Primary screen of a compound library

The chains behind the UniProt entries cited, without tags or fusion partners. Residues count along the entry.
UniProt I6X8D2, whole entry: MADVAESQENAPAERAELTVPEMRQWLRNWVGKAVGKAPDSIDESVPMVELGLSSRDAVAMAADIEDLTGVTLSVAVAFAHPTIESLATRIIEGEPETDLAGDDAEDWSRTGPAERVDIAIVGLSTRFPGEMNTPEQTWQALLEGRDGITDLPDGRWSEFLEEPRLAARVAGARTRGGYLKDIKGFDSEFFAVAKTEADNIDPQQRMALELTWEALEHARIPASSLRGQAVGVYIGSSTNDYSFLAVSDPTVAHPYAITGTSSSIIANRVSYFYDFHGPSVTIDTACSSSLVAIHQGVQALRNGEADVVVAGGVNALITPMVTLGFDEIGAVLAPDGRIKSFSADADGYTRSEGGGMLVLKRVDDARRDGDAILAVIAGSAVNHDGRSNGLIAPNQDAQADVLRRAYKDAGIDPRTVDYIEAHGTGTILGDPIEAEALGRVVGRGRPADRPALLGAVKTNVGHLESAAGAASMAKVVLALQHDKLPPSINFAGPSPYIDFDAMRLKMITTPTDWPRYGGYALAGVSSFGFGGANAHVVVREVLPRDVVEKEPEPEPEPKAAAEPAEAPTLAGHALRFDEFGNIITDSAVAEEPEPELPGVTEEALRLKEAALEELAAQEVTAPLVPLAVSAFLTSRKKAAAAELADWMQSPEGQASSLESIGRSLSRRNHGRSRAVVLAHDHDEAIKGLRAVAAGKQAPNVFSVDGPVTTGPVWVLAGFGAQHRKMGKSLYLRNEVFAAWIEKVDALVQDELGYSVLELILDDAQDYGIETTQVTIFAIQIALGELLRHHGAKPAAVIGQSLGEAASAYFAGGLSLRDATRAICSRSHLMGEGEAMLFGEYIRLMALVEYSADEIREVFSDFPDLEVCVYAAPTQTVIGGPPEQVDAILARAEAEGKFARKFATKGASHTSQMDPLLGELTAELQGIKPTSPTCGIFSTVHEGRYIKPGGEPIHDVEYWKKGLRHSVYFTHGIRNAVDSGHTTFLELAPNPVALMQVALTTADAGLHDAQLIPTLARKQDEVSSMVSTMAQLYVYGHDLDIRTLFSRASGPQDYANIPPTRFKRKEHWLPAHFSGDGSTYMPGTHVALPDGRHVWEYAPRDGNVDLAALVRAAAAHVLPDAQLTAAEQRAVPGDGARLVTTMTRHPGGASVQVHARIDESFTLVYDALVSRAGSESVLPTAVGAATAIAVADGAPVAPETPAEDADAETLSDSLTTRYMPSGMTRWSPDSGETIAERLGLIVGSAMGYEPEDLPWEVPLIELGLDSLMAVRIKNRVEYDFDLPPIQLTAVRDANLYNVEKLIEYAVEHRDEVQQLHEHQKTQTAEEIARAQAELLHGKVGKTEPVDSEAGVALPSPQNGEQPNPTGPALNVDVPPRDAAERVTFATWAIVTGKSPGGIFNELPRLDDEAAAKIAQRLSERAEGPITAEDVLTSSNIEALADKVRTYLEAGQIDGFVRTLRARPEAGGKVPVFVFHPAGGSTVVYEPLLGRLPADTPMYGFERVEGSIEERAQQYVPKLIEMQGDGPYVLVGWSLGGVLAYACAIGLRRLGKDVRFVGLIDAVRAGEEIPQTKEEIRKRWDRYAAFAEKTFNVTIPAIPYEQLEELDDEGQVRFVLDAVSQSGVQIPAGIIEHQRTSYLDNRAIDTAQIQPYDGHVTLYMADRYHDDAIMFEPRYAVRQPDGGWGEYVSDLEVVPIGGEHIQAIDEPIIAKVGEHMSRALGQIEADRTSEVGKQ
UniProt P9WNZ1, whole entry: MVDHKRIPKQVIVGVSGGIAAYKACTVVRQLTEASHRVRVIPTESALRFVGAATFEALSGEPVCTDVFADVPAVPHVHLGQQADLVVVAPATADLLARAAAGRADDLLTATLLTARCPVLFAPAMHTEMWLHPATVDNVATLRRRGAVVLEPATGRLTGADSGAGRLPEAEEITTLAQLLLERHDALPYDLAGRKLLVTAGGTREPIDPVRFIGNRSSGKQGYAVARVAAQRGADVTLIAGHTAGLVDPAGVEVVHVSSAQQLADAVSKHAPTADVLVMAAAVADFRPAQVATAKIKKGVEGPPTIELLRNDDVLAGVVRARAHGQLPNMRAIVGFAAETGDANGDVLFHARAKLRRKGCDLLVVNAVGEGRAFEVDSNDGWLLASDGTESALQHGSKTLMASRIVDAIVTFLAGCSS
UniProt P9WFT3, whole entry: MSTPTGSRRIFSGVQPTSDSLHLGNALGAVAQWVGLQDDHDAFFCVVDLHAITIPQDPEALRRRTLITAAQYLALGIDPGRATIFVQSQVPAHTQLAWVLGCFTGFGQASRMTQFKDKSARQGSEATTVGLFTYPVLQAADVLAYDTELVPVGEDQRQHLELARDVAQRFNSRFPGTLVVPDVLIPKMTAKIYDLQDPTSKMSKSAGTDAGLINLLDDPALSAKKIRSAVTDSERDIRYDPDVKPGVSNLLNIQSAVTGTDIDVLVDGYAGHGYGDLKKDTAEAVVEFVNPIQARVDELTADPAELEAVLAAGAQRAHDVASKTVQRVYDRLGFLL
UniProt A4I591, 1-473: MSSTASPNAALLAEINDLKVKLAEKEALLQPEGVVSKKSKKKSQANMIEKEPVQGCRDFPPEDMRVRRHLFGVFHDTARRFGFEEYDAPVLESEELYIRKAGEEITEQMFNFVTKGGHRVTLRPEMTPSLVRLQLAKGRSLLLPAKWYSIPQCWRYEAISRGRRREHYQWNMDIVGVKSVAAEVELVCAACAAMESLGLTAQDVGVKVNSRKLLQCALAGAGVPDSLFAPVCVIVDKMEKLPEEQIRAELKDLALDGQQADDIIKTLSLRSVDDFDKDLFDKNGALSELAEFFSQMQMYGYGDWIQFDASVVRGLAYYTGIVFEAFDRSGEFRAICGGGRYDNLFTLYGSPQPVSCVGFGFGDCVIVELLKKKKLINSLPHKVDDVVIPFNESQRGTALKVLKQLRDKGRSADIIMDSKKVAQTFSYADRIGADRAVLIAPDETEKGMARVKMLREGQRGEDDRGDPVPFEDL
UniProt Q4DA54, 1-478: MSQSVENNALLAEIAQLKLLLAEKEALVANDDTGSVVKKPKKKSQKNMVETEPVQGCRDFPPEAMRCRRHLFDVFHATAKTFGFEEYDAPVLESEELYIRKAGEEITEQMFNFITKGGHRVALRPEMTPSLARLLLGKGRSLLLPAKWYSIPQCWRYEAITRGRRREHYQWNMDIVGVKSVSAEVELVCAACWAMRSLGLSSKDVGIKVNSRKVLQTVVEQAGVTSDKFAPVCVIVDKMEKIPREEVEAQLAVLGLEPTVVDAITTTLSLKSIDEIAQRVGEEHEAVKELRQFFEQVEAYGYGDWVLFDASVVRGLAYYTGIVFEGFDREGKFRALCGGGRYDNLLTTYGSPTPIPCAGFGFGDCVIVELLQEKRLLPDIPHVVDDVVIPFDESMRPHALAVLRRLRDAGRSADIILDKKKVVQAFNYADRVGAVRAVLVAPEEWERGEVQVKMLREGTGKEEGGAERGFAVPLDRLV

Data taken from ChEMBL document CHEMBL3988442, “University of Dundee, Small-Polar-MMV Screening Library” (2021).

The filed quantity is “Percent Effect” (%). The record does not define 0% and 100%; most values in the screen are far below 50% and negative numbers occur (in some assays of this library far below -100). Compounds were drawn at random from those tested, without regard to their results. A dash means the value is not listed here; it may have been measured.

Pks13 thioesterase: 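Enzyme assay of the thioesterase domain of polyketide synthase 13; the read-out is not stated. Target: Polyketide synthase Pks13, Mycobacterium tuberculosis (UniProt I6X8D2). Concentration: 30 µM. The record gives no direction; the compounds picked for IC50 retests had high values, so higher reads as stronger inhibition. Size under these conditions: about 67,000 compounds, about 300 of them at 50% or above in at least one test.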
Toxoplasma: 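Assay of Toxoplasma gondii numbers, read through their beta-galactosidase reporter with a colour substrate. Compounds at 10 µM. Higher reads as fewer parasites (inferred from which compounds were picked for retests). Size under these conditions: about 67,000 compounds, about 260 of them at 50% or above in at least one test.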
CoaBC: 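Coenzyme A biosynthesis protein CoaBC, Mycobacterium tuberculosis (UniProt P9WNZ1). Enzyme assay of CoaBC with a phosphate dye (Biomol Green) read at 650 nm. Concentration: 30 µM. Higher reads as stronger inhibition, judged from the few compounds that gave an IC50. Most strong results did not repeat in a second test. Size under these conditions: about 67,000 compounds, about 40 of them at 50% or above in at least one test.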
MtTrpRS: 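Tryptophan-tRNA ligase, Mycobacterium tuberculosis (UniProt P9WFT3). Enzyme assay of tryptophanyl-tRNA synthetase; the read-out is not stated. Tested at 10 µM. Direction is not recorded; retested compounds ran higher, which suggests that high means inhibition. Size under these conditions: about 65,000 compounds, about 64 of them at 50% or above in at least one test.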
LiHisRS: 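Enzyme assay of histidyl-tRNA synthetase; the read-out is not stated. Target: Histidine-tRNA ligase, Leishmania infantum (UniProt A4I591). Concentration: 30 µM. Direction is inferred from retests: higher values go with stronger inhibition. The assay is labelled LdHisRS but filed under L. infantum. Size under these conditions: about 69,000 compounds, about 410 of them at 50% or above in at least one test.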
TcHisRS: 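Histidine-tRNA ligase, Trypanosoma cruzi CL Brener (UniProt Q4DA54). Enzyme assay of histidyl-tRNA synthetase; the read-out is not stated. Tested at 30 µM. Direction is inferred from retests: higher values go with stronger inhibition. Of about 69,000 compounds tested this way, about 31 (0.045%) reached 50% or more in at least one test.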

| Compound | Pks13 thioesterase | Toxoplasma | CoaBC | MtTrpRS | LiHisRS | TcHisRS |
|---|---|---|---|---|---|---|
| `O=C(c1cn(CCN2CCCCC2)nn1)N1CCCCO1` | -17.78% | -4.945% | 4.418% | 7.552% | 16.42% | 0% |
| `Cc1ccc(CN2CC[C@H]3[C@H]2CCN3S(=O)(=O)C2CC2)cc1` | -7.369% | - | 3.893% | -3.294% | 18% | 3.448% |
| `O=C(O)C(F)(F)F.O=C(O)C(F)(F)F.O=C(O)C(F)(F)F.[H][C@]12C[C@@H](Cn3cccn3)N(C)[C@@]1([H])CCN(Cc1cccs1)C2` | - | 13.4% | - | - | - | - |
| `CNc1ncc2c(n1)CN(Cc1ccc(Cl)cc1)C2=O` | 16.73% | -51.17% | 2.806% | 4.456% | 18.52% | 4.018% |
| `Cc1nn(CC(=O)N2CCN(c3ccc(F)cc3)CC2)c(C)c1Cl` | -28.4% | 11.74% | 19.63% | 4.301% | -1.77% | 3.509% |
| `NC(=O)C(CNC(=O)CCc1ccsc1)Cc1ccc(F)cc1` (centres unmarked) | -13.12% | 9.847% | -4.212% | -2.201% | -4.494% | 1.508% |
| `Cc1nc(CN2CCCC(NCCCOc3ccc(F)cc3)C2)no1` (centres unmarked) | - | -7.232% | 4.462% | -6.304% | 6.78% | 6.857% |
| `CC(=O)NCCc1ccc(S(=O)(=O)Nc2ccc(C)cc2F)s1` | -24.22% | 26.31% | -0.6337% | -5.436% | 16.46% | -1.293% |
| `Cc1cc(NC(C)c2nncn2C2CCCC2)n2nc(C)cc2n1` (centres unmarked) | -22.65% | -13.21% | 8.955% | 15.14% | 26.53% | 7.179% |
| `CCCC(N)CNS(=O)(=O)Cc1cccc(C#N)c1.Cl` (centres unmarked) | - | -2.76% | - | - | - | - |
| `[H][C@@]12CN(S(=O)(=O)c3cccc(C)c3)C[C@]1([H])OCCN2C(C)C` | - | -9.013% | - | - | - | - |
| `NC(=O)c1nc2c(s1)CCN(Cc1ccccc1)CC2.O=C(O)C(F)(F)F` | - | -11.93% | - | - | - | - |
| `O=C(O)C(F)(F)F.[H][C@@]12C[C@H](C(=O)N3CCCC3)[C@@]([H])(CN(CC(C)C)C1)O2` | - | 12.41% | - | - | - | - |
| `Clc1ccc(C2(CNC3=NCCN3)CCCC2)cc1` | -16.15% | - | -30.94% | -2.888% | 35.71% | 4.255% |
| `O=C1CCC2(CCCN(C(=O)c3cccs3)C2)N1` (centres unmarked) | -13.67% | -2.744% | 1.781% | -4.123% | 7.767% | 1.942% |
| `[H][C@]12CC[C@@]3(N=C(CC)N(C)C3=O)[C@@]1([H])CN(C(=O)NCc1ccccc1)C2` | - | -2.81% | - | - | - | - |
| `CC(C)CN1C(=O)C2(CCN(Cc3cccs3)C2)c2ccccc21` (centres unmarked) | 8.314% | - | -3.294% | 2.205% | 23.29% | 4% |
| `CC(C)Cn1ccc2c(NC(=O)c3n[nH]c4c3CCC4)cccc21` | -18.64% | - | 0.6075% | -0.6431% | 15.22% | 4.95% |
| `Cc1ncsc1CNC(=O)N1CCN(Cc2ccccc2)C[C@H]1C` | -6.115% | -9.942% | -1.691% | -4% | 13.13% | 10.97% |
| `O=C(O)C(F)(F)F.[H][C@@]12CCN(Cc3ccc(F)c(F)c3)[C@]1([H])CC[C@@H](C(=O)NCC1CC1)O2` | - | 14.85% | - | - | - | - |
| `O=C(CCCc1nc2ccccc2[nH]1)N1CCCC1c1ccncc1` (centres unmarked) | 0.5723% | 2.041% | 6.638% | 22.16% | 11.67% | -2.273% |
| `CC(C(=O)Nc1ccc2ccccc2c1)N1CCC(n2ccnc2)CC1` (centres unmarked) | -66.44% | 3.951% | -0.4274% | -5.068% | 18.8% | 2.703% |
| `CCC(C)Oc1cc(C(=O)N(c2cccnc2)C(C)C)ccn1` (centres unmarked) | -2.238% | -20.64% | -0.4878% | -0.55% | 4.202% | 3.922% |
| `COc1c(C)cnc(CNC(=O)CCc2nc3ccccc3[nH]2)c1C` | -10.38% | 7.57% | -4.902% | 2.716% | 24.44% | 8.333% |
| `CC(C)N1CCc2c(CN(C)Cc3ccco3)cncc2C1.Cl.Cl.Cl` | - | 1.389% | - | - | - | - |
| `CS(=O)(=O)CCCSCc1cc(F)cc(Br)c1` | -19.7% | -15.9% | 1.088% | -1.102% | 8.065% | 4.545% |
| `CCCN(CC)C(=O)c1nc2c(n1C)CCN(Cc1ccccc1)C2` | -16.57% | 1.484% | -6.721% | -0.7214% | 23.68% | 12.64% |
| `Cc1nccn1C1CCCN(C(=O)c2ccc3c(c2)CCC3)C1` (centres unmarked) | -1.964% | -5.416% | 6.769% | -5.649% | 11.61% | 8.671% |
| `CN1CCC(Cc2noc(-c3cccc(OCC(N)=O)c3)n2)CC1` | -15.29% | -5.148% | -0.8264% | 10.15% | 8% | 1.63% |
| `Cc1ccc(CNC(=O)c2cc(CN3CCC(O)CC3)on2)s1` | -5.152% | 1.469% | -0.7444% | -1.713% | 4.255% | 1.734% |

The last 2 entries again:

Compound,Pks13 thioesterase,Toxoplasma,CoaBC,MtTrpRS,LiHisRS,TcHisRS
CN1CCC(Cc2noc(-c3cccc(OCC(N)=O)c3)n2)CC1,-15.29%,-5.148%,-0.8264%,10.15%,8%,1.63%
Cc1ccc(CNC(=O)c2cc(CN3CCC(O)CC3)on2)s1,-5.152%,1.469%,-0.7444%,-1.713%,4.255%,1.734%